This is an account of results in article PMC7862700.

This is a selection; strong and weak results do not stand in their true shares. At the low end of the ranking the order means little.

For this experiment, the target named is SPI1 (UniProt P17947). As to the kind of experiment: DAPPL (digital affinity profiling via proximity ligation, sequencing). To be noted: 10 mM Tris-HCl pH 7.5, 50 mM NaCl, 1 mM DTT, 4% glycerol, room temperature, 30 min; GST-TFs on glutathione beads, 16-mer random dsDNA library, 0.1% …; high values mean tight binding; double strand, one strand shown; scale: fold enrichment (6-mer frequency, TF over GST control).
With AGGTCA, the binding signal is 0.675.

As for GTCGGT, the binding signal came to 0.29.

Take GCACGT: the binding signal was determined as 0.749.

For AAGCGT, the binding signal is 0.863.

The sequence TAGGAG came in with a binding signal of 0.387.

Sequence GTGGGG yielded a binding signal of 0.627.

GAGGAG displayed a binding signal of 0.211.

As for AGAGGC, the binding signal came to 0.632.

Take GTCAAC: the binding signal stood at 0.911.

CCAGTC gave a binding signal of 0.264.

In turn, GGCGAC yielded a binding signal of 0.772.

Consider AAGGAC, for which the binding signal was found to be 0.777.

As to GCGGGC, the binding signal was 0.752.

AGGTCG: the binding signal came to 0.491.

The sequence AAGAGT had a binding signal of 0.783.

Sequence GGTTGC returned a binding signal of 0.925.

Turning to CAGTTG, the binding signal was 0.477.

Consider CTGTGA, for which the binding signal stood at 0.475.

With CCAGAC, the binding signal was 0.659.

In the case of TGAGTC, the binding signal amounted to 0.192.

AATCGG came in with a binding signal of 0.556.

Regarding AGAGAG, the binding signal turned out to be 0.485.

Turning to GGCACG, the binding signal came to 0.757.

The sequence GGCCGA gave a binding signal of 0.722.

AGGGGA came in with a binding signal of 0.903.

The sequence GGTAAG registered a binding signal of 0.689.

Sequence GGGTCA displayed a binding signal of 0.68.

In turn, CCGTAG showed a binding signal of 0.879.

ACAGTC returned a binding signal of 0.434.

As for GCTCGG, the binding signal amounted to 0.717.

TAGGAC returned a binding signal of 0.755.

In the case of AGCCTG, the binding signal amounted to 0.895.

Take AGGTGA: the binding signal turned out to be 0.529.

CCATGA: the binding signal amounted to 0.857.

CGGCGT returned a binding signal of 0.892.

GTGTAT displayed a binding signal of 0.968.

Sequence ATCGGG came in with a binding signal of 0.461.

GACTGG yielded a binding signal of 0.576.

As for CGTTGA, the binding signal is 0.743.

AGCCGC had a binding signal of 0.894.
